At least one compound was matched to its structure with a doubt left.
System: normal plasma (activated partial thromboplastin time)
Assay: Clotting time of dabigatran-supplemented plasma with dry APTT reagent on the CG02N blood coagulation analyzer
Format: biochemical
Settings: for Mean clotting time: 0 ng/mL: 29.0 sec

[H]/N=C(/N)c1ccc(NCc2nc3cc(C(=O)N(CCC(=O)O)c4ccccn4)ccc3n2C)cc1 [Dabigatran, dabigatran]
Mean clotting time (dabigatran concentration in plasma 90 ng/mL): 51.1 s
Mean clotting time (dabigatran concentration in plasma 180 ng/mL): 60.8 s
Mean clotting time (dabigatran concentration in plasma 500 ng/mL): 86.2 s
Mean clotting time (dabigatran concentration in plasma 1,000 ng/mL): 119.0 s
Effect on clotting time (in words) (plasma supplemented with 0 to 1,000 ng/ml dabigatran, dry APTT reagent): prolong the clotting time depending on the concentration of dabigatran

From patent US20250076320A1, “METHOD AND PROGRAM FOR DETECTING ADMINISTERED DRUG, AND DEVICE THEREFOR” (A&T CORPORATION, priority 2023, published 2025)
